Experimental data as given in patent US10292979B2, “Methods of treating cancer patients with farnesyltransferase inhibitors” (Kura Oncology, Inc., priority 2015, dated 2019).
At least one compound was matched to its structure with a doubt left. Some results were stated once for a whole list of compounds, not compound by compound. Some ranges recur; such a range may be that of the whole group of compounds.

How the values were obtained:
[1] = test system: relapsed or refractory PTCL; details: range stated for the three drugs together; cited from earlier work
[2] = test system: AML patients; experiment: Clinical outcome of AML patients treated with tipifarnib versus NK cell biomarker expression in bone marrow (GSE8970/CTEP-20, GSE5122); type: in vivo, human; details: FIG. 4A
Method: The current study used microarray data generated from global gene expression assay of bone marrow samples collected in two clinical studies investigating the efficacy and safety of FTI tipifarnib. One clinical study was conducted in adult patients aged 65 years or older with previously untreated AML, and the other conducted in relapsed and refractory AML. The clinical results for these studies were previously published (Lancet et al., Blood 109:1387-1394 (2007); Harousseau et al., Blood 9:9 (2007); Raponi et al., Clin. Cancer Res. 13:2254-2260 (2007)), and the gene profiling data were publically available in NCBI's Gene Expression Omnibus (GEO, http://www.ncbi.nlm.nih.gov/geo) and are assessable through GEO Series accession numbers GSE8970 and GSE5122.
As described in Raponi et al., Blood 111:2589-96 (2008), BM samples were collected from consenting patients before treatment with tipifarnib, and mononuclear cells were processed on site. Total RNA was extracted from cell samples, quality controlled, and further processed for microarray analysis. DNA was isolated from the same sample. Samples were assayed for global gene expression, and/or quantitative polymerase chain reaction (QPCR) of specific genes). […]

Row | Compound | durations of response [1] | objective response rates (overall response rate, ORR) [1] | PFS and OS, highest (4th) quartile of 2DS5/2DL5A ratio compared to the rest of the patient population [2]
1 | C/C=C1\NC(=O)[C@H]2CSSCC/C=C/[C@H](CC(=O)N[C@H](C(C)C)C(=O)N2)OC(=O)[C@H](C(C)C)NC1=O [romidepsin] | 8.2-9.4 months | 25-27% | –
2 | Cn1cncc1[C@@](N)(c1ccc(Cl)cc1)c1ccc2c(c1)c(-c1cccc(Cl)c1)cc(=O)n2C [Tipifarnib, (B)-6-[amino(4-chlorophenyl)(1-methyl-1H-imidazol-5-yl)methyl]-4-(3-ch-lorophenyl)-1-methyl-2(1H)-quinolinone] | – | – | statistically significantly longer PFS and OS
